Where a name gives a salt, the structure may show the parent alone.

The nature of the data set: Character description (odour character) of the PRMs of Table 1. Particulars: odour character in words.
In the case of `C=CC[C@@](C)(CCC=C(C)C)[C@@H](C)O` (racemic) [Molecule 120, 3-(R,S)-allyl-3,7-dimethyloct-6-en-2-(R,S)-ol], the Character description result was “floral”.

As to `CCOC(=O)[C@@H]1CCC(C)[C@@H](C)C1` (stereo partly drawn) [Molecule 106, (R,S)-ethyl 3,4-dimethylcyclohex-anecarboxylate], the Character description result is reported as “fruity (chewing gum), pineapple- strawberry- red apple”. For the molecule `C=CCC(C)(C#N)CCC=C(C)C` (racemic) [Molecule 60, 2-(R,S)-allyl-2,6-dimethylhept-5-enenitrile], the Character description result is on record as “celery, mussels, sea”.

`CC1OC(C)(C)CCC1(C)C` (racemic) [Molecule 142, 2,2,5,5,6-(R,S)-pentamethyl-tetrahydro-2H-pyran]: the Character description result was “camphor, green”. As to `CCC(=O)C1(CCC=C(C)C)CCC1` [Molecule 10, 1-(1-(4-methylpent-3-en-1-yl)cyclobutyl) propan-1-one], the Character description result is “fruity (pineapple, currant- grenadine), minty”. Then `CC(C)=CCC(C)(C)CO` [Molecule 101, 2,2,5-trimethylhex-4-en-1-ol], with “lilac, clean”; and `CCCOc1cc(C=O)ccc1OC` [Molecule 29, 4-methoxy-3-propoxybenz-aldehyde], with “vanilla, caramel”.

For `CCC1(C(C)=O)CCC(C)=C(C)C1` (racemic) [Molecule 41, 1-(1-(R,S)-ethyl-3,4-dimethyl-cyclohex-3-en-1-yl)ethanone], the Character description entry is recorded as “floral, pine needles, fresh (lime)”. In the case of `CC1=C(C)CC(C)(C(=O)CC(C)C)CC1` (racemic) [Molecule 54, 3-methyl-1-(1-(R,S),3,4-trimethylcyclohex-3-enyl)butan-1-one] it was “green, unripe fruit, malt (beer)”; in that of `CCCCC(=O)C(C)(CC)CC=C(C)C` (racemic) [Molecule 19, 6-(R,S)-ethyl-6,9-dimethyldec-8-en-5-one], “woody, leathery”; in that of `CC(C)=C1CCC(C)C1CO` (racemic) [Molecule 89, (2-(R,S)-methyl-5-(propan-2-ylidene)cyclopent-yl)methanol], “quinoline”. In the case of `CC1(C)[C@H]2CC=C(CCCCO)[C@@H]1C2` [Molecule 6, 4-((1R,5S)-6,6-dimethylbicyclo [3.1.1]hept-2-en-2-yl)butan-1-ol] it was “woody, earthy”; in that of `CC(C)COC(=O)C1CCC(C)C(C)C1` (centres unmarked) [Molecule 114, isobutyl 3,4-dimethylcyclohex-anecarboxylate], “fruity, butyric”. As to `COC(=O)C(C)(C)Cc1ccccc1C` [Molecule 109, methyl 2,2-dimethyl-3-o-tolylpropanoate], the Character description entry was “saffron, woody”. In the case of `O=Cc1ccc(O)c(OCC2CC2)c1` [Molecule 38, 3-(cyclopropyl-methoxy)-4-hydroxybenz-aldehyde] it was “sweet, floral, anisic”. In the case of `CC1CC[C@@H](C(=O)OC(C)(C)C)C[C@@H]1C` (stereo partly drawn) [Molecule 117, (R,S)-tert-butyl 3,4-dimethylcyclohex-anecarboxylate] it was “clean, ozonic”; in that of `CC(C)=C1CC[C@H](C)[C@H]1COC=O` [Molecule 90, (R,S)-(2-methyl-5-(propan-2-ylidene)cyclopent-yl)methyl formate], “woody”; in that of `CCC(=O)C1(C)CCC(C)=C(C)C1` (racemic) [Molecule 57, 1-(1-(R,S),3,4-trimethylcyclohex-3-enyl)propan-1-one], “citrus, floral (fresia), herbal”. As for `CC(=O)OCC(C)(C)Cc1cccc(C)c1` [Molecule 111, 2,2-dimethyl-3-m-tolylpropyl acetate], the Character description result is listed as “citrus”. Then `CCCC1(C#N)CCC(C)=C(C)C1` (racemic) [Molecule 45, 3,4-dimethyl-1-(R,S)-propylcyclohex-3-enecarbonitnle], with “citrus, herbal”; and `CC1CC2(C)C(C)CC1(C)OC2C` (centres unmarked) [Molecule 98, 1,3,4,6,8-pentamethyl-2-oxa-bicyclo[2.2.2] octane], with “herbal, camphor”; and `CC1=C(C)CC(C)(C#N)CC1` (racemic) [Molecule 22, 1-(R,S)-,3,4-trimethylcyclohex-3-enecarbonitrile], with “herbal, spicy (nutty)”. Then `CC(C)=CCC(C)(C)C(C)O` (racemic) [Molecule 141, 3,3,6-trimethylhept-5-en-2-(R,S)-ol], with “lime, lilac”; and `COC(=O)C1CCC(C)=C(C)C1` (racemic) [Molecule 123, methyl 3,4-dimethylcyclohex-3-ene-(R,S)-carboxylate], with “banana skin”; and `CC(=O)C1(CC=C(C)C)CCC(C)=C(C)C1` (racemic) [Molecule 26, 1-(3,4-dimethyl-1-(R,S)-(3-methylbut-2-en-1-yl)cyclohex-3-en-1-yl)ethanone], with “clean, floral, woody (pine), green”. Consider `CCCC[C@@H](O)[C@](C)(CC)CCC=C(C)C` (racemic) [Molecule 15, 6-(R,S)-ethyl-6,10-dimethylundec-9-en-5-(R,S)-ol], for which the Character description result is listed as “floral, herbal,”. In the case of `CCC(C)(CC=C(C)C)C(C)O` (racemic) [Molecule 18, 3-(R,S)-ethyl-3,6-dimethylhept-5-en-2-ol] it was “floral herbal (lilac, pine), clean”. Consider `CCC(C)(C#N)CCC=C(C)C` (racemic) [Molecule 11, 2-(R,S)-ethyl-2,6-dimethylhept-5-enenitrile], for which the Character description entry was “herbal (fennel), fruity”.

Consider `CC(=O)OC[C@@H]1CCC(C)[C@@H](C)C1` (stereo partly drawn) [Molecule 79, (R,S)-(3,4-dimethyl-cyclohexyl)meth-yl acetate], for which the Character description result is “rose, fruity”. With `Cc1ccc(CC(C)(C)CO)cc1` [Molecule 115, 2,2-dimethyl-3-p-tolylpropan-1-ol], the Character description result is given as “violet, minty”. Then `CC1=C(C)CC(C(=O)OC(C)(C)C)CC1` (centres unmarked) [Molecule 116, tert-butyl 3,4-dimethylcyclohex-3-enecarboxylate], with “herbal, aromatic”; and `CC1=C(C)C[C@](C)([C@@H](C)OC=O)C(C)C1` (stereo partly drawn) [Molecule 94, (R,S)-1-(1,3,4,6-tetramethyl-cyclohex-3-enyl)ethyl formate], with “violet, woody”; and `COC(=O)[C@@H]1CCC(C)[C@@H](C)C1` (stereo partly drawn) [Molecule 70, (R,S)-methyl 3,4-dimethylcyclohex-anecarboxylate], with “fruity (pineapple)”. Regarding `C=CCC1(C(C)=O)CCC(C)=C(C)C1` (racemic) [Molecule 46, 1-(1-(R,S)-allyl-3,4-dimethyl-cyclohex-3-en-1-yl)ethanone], the Character description entry is reported as “herbal (lavender), citrus, sweet”. With `CC1=C(C)CC(COC=O)CC1` (racemic) [Molecule 75, (R,S)-(3,4-dimethylcyclohex-3-enyl)methyl formate], the Character description entry is reported as “aldehydic, fresh (mimosa)”. Then `C=CCC(C)(CCC=C(C)C)C(C)=O` (racemic) [Molecule 119, 3-(R,S)-allyl-3,7-dimethyloct-6-en-2-one], with “floral”; and `COC(=O)C1(C(C)C)CCC(C)=C(C)C1` (racemic) [Molecule 136, methyl 1-(R,S)-isopropyl-3,4-dimethylcyclohex-3-enecarboxylate], with “violet”; and `CC(=O)C1(C)CC=CCC1C` (racemic) [Molecule 85, 1-(1,6-(R,S)-dimethylcyclohex-3-enyl)ethanone], with “woody, camphoraceous”. Then `CC1CC[C@@](C)(COC=O)C[C@@H]1C` (stereo partly drawn) [Molecule 77, (R,S)-(1,3,4-trimethyl-cyclohexyl)meth-yl formate], with “violet, floral”; and `CCCCC1(C(C)=O)CCC(C)=C(C)C1` (racemic) [Molecule 144, 1-(1-(R,S)-butyl-3,4-dimethyl-cyclohex-3-enyl)ethanone], with “spicy”; and `CC(C)=CCCC1(C)COC(C)(C)CO1` (racemic) [Molecule 61, 2,2,5-trimethyl-5-(R,S)-(4-methylpent-3-en-1-yl)-1,3-dioxane], with “nutty, creamy”. Take `CC(=O)C1(CCC=C(C)C)CCC(C)=C(C)C1` (racemic) [Molecule 52, 1-(R,S)-(3,4-dimethyl-1-(4-methylpent-3-enyl)cyclohex-3-enyl)ethanone]: the Character description entry is reported as “floral, green”.

Take `CCC1(C#N)CCC(C)=C(C)C1` (racemic) [Molecule 40, 1-(R,S)-ethyl-3,4-dimethyl-cyclohex-3-enecarbonitrile]: the Character description result was “spicy”.

Take `CC1=C(C)CC(C#N)CC1` (racemic) [Molecule 21, (R,S)-3,4-dimethylcyclohex-3-enecarbonitrile]: the Character description entry is “almond”. In the case of `CC1=C(C)C[C@](C)([C@@H](C)O)CC1` (racemic) [Molecule 25, 1-(R,S)-(1-(R,S),3,4-trimethyl-cyclohex-3-en-1-yl)ethanol] it was “clean, pine, floral (lily of the valley)”; in that of `C=CCC1(C(C)O)CCC(C)=C(C)C1` (racemic) [Molecule 47, 1-(1-(R,S)-allyl-3,4-dimethyl-cyclohex-3-en-1-yl)ethanol], “woody”. As for `CC1=C(C)CC(C)(COC=O)CC1` (racemic) [Molecule 74, (1-(R,S),3,4-trimethylcyclohex-3-enyl)methyl formate], the Character description entry was “herbal”. In the case of `CC(=O)C(C)(C)CC=C(C)C` [Molecule 140, 3,3,6-trimethylhept-5-en-2-one] it was “citrus, fresh, grapefruit”; in that of `CC1CC(C)[C@@](C)([C@@H](C)O)CC1C` (stereo partly drawn) [Molecule 88, (R,S)-1-(1,2,4,5-tetramethylcyclo-hexyl)ethanol], “sweet, fruity”; in that of `CC(=O)O[C@H](C)[C@@]1(C)CCC(C)=C(C)C1` [Molecule 80, (R,S)-1-(1,3,4-trimethylcyclohex-3-enyl)ethyl acetate], “fruity, herbal, clean”.

Source of the values: patent US20180230398A1, “PERFUME SYSTEMS” (The Procter & Gamble Company, priority 2014, published 2018).
